The target in assay [1] is T1, Flag-TRIM24 wild type (tripartite motif containing 24) (human) (UniProt O15164).
T1 sequence: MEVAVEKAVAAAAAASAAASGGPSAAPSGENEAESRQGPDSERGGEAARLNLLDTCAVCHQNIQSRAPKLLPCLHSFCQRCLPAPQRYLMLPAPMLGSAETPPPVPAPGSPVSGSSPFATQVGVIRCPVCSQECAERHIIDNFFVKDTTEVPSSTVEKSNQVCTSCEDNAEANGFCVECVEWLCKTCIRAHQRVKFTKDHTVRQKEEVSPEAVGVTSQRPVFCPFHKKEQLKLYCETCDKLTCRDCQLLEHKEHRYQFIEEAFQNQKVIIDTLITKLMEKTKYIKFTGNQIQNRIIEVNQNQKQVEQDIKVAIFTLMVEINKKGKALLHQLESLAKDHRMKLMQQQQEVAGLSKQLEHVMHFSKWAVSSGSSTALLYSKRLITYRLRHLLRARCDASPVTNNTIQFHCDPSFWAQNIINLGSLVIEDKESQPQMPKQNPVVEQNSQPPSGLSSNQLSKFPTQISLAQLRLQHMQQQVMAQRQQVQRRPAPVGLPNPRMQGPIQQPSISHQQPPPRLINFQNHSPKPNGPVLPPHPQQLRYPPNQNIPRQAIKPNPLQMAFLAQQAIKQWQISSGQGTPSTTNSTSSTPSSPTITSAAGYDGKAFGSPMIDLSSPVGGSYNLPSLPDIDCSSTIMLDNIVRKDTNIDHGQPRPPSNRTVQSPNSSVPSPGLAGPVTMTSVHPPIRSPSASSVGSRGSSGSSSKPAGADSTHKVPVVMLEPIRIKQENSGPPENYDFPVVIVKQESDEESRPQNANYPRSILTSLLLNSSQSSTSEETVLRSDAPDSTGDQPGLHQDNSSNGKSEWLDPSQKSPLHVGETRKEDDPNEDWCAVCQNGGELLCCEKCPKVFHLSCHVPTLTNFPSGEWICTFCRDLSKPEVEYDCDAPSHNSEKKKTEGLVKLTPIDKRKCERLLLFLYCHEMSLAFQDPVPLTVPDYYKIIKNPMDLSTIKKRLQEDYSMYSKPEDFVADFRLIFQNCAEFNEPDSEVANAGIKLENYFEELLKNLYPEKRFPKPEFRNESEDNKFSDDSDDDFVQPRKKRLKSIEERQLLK
The assay can be described thus: co-IP; HEK293T cells without HRas^V12 (Figure S7A,B); lysate.

Protein sequences, listed by entry. Tags and fused reporters are not part of them.
UniProt P78527: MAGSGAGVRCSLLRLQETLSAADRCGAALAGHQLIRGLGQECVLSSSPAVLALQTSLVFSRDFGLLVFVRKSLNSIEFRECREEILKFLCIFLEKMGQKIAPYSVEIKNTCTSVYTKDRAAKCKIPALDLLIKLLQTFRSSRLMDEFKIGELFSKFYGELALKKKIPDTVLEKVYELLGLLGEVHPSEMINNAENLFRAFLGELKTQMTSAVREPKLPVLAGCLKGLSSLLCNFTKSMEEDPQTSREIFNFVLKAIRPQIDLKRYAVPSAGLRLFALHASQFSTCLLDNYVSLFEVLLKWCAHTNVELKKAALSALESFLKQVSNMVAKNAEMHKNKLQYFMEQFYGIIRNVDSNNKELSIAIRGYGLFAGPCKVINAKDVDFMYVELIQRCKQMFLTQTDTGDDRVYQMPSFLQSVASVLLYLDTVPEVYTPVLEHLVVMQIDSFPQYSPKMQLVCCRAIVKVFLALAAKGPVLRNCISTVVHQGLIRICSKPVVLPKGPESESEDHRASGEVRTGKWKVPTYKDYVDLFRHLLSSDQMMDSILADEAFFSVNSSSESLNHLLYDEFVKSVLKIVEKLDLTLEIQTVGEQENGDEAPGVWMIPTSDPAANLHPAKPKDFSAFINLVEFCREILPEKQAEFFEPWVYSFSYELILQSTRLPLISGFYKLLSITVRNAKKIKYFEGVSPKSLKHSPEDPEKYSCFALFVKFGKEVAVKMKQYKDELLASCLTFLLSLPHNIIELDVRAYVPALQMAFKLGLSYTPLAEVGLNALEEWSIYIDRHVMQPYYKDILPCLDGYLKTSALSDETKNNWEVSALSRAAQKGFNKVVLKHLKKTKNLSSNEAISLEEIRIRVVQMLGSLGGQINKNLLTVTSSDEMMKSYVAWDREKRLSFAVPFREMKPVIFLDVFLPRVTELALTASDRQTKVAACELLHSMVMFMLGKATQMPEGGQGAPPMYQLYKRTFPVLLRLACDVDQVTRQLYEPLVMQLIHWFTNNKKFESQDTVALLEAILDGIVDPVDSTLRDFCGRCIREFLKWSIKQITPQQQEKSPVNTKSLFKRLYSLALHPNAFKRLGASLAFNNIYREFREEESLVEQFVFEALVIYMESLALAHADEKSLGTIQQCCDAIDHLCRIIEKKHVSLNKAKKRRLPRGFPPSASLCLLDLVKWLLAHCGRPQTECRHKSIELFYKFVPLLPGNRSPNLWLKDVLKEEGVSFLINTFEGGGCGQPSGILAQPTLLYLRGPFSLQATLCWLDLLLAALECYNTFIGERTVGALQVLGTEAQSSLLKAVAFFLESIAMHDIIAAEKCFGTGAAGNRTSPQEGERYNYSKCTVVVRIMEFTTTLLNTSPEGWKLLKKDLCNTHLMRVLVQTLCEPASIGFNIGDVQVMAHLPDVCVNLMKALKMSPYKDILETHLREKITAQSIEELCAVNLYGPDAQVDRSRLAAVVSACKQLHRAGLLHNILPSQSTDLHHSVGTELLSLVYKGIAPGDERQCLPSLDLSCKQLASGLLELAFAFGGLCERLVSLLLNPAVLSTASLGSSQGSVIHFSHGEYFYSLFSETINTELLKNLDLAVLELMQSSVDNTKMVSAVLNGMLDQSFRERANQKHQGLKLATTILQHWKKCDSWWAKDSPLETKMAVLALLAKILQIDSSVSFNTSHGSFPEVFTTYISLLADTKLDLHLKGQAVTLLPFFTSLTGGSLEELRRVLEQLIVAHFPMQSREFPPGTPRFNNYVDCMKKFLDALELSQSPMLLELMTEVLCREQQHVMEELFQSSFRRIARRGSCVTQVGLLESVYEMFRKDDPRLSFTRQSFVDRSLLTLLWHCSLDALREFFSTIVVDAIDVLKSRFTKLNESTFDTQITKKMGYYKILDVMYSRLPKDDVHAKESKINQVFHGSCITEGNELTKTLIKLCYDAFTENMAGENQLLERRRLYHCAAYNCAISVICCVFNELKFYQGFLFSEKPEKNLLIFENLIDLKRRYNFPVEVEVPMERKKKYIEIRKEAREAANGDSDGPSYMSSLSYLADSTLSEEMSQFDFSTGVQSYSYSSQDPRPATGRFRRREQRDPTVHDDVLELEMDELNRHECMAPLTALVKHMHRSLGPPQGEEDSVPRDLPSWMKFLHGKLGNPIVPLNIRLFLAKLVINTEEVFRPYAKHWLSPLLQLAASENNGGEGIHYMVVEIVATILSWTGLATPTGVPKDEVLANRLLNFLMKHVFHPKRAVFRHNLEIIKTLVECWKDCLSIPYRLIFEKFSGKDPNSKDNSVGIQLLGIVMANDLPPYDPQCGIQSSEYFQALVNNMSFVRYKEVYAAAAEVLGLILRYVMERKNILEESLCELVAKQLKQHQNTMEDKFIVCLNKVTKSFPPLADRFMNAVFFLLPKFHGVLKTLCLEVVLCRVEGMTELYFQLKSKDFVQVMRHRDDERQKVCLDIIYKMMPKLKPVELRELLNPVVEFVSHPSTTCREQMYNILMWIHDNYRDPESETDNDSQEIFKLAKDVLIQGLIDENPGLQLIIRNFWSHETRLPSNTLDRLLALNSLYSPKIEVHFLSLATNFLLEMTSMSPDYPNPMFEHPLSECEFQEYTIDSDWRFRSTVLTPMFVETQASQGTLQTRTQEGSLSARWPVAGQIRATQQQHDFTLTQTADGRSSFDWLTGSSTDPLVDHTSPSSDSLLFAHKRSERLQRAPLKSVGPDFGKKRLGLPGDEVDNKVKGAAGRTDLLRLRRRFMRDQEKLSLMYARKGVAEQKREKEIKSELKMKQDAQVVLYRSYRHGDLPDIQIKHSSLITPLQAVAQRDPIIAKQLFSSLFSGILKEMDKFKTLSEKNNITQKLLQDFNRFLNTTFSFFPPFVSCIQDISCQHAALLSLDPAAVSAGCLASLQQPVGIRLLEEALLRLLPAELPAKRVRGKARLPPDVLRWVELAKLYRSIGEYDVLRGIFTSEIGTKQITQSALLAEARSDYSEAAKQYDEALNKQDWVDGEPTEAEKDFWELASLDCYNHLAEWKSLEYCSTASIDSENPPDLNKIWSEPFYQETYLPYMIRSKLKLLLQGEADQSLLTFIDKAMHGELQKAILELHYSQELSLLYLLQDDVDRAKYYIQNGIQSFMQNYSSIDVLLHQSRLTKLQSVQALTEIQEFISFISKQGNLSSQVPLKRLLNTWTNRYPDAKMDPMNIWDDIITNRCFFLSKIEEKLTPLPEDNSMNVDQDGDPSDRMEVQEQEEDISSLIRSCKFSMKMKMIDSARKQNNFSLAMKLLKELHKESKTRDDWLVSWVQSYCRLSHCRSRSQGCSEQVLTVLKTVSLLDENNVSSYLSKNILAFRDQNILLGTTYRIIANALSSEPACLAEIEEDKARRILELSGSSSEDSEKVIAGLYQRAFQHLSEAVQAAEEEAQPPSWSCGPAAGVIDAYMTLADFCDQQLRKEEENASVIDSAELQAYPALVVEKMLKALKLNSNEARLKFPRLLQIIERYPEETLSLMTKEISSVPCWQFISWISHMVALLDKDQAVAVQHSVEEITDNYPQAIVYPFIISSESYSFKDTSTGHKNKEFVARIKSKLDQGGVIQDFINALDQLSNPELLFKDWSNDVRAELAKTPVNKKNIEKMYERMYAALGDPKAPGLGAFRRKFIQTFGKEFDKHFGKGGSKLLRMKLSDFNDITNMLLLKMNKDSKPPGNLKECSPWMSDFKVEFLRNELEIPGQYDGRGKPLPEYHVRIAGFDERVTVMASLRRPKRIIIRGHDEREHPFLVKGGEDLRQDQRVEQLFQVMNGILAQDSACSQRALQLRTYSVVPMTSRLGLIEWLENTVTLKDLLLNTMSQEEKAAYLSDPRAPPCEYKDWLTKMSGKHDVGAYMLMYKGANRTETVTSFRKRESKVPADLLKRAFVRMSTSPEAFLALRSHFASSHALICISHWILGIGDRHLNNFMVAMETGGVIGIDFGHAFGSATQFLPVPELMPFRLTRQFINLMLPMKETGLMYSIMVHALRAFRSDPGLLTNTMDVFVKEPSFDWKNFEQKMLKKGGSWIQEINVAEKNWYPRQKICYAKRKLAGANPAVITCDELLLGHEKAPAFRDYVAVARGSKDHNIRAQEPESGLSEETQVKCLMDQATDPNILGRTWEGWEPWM

Assay [2] deals with T2, TRIM24 S767/768D phosphomimetic mutant (human) (UniProt O15164).
T2 sequence: T1 sequence with S767D, S768D
The assay can be described thus: co-IP; lysates of NHA/HRas^V12 cells expressing TRIM24 WT, deletion or point mutants; IP lysis buffer (20 mM Tris-HCl pH 7.5, 150 mM NaCl, 1 mM EDTA, 1% Triton X-100), 4 °C, four washes, Western blot; endogenous DNA-PK complex; some panels after NU7441 (4 µM, 24 h), Dabrafenib (40 µM, 24 h), U3 snoRNA knock-down or PHAX knock-down. (In general: In western blotting, separated proteins are transferred to a membrane and probed.)

Assay [3] deals with T1, Flag-TRIM24 wild type (tripartite motif containing 24) (human). The assay can be described thus: co-IP; NHA cells with HRas^V12, co-transfected with TRIM24, Ku70 and Ku80 constructs; lysate, Western blot.
For assay [4] the target is unchanged. The assay can be described thus: co-IP; HEK293T cells with HRas^V12 (Figure S7A,B); lysate.

Numbering of substitutions follows the chain as printed. No constants are given. Whether binding was seen depends on the method and setting. In cells and extracts the contact can be indirect. Some results given as binding are weak or reduced against the parent protein; the word gives no strength. For some of these results: Tags and fused reporters may be left off the sequences shown.

For the substance “DNA-dependent protein kinase catalytic subunit (DNA-PKcs) (from UniProt P78527 1-4128) (enzyme)”, the binding result in assay [1] is given as “no binding (condition: in HEK293T cells without HRas^V12)”; in assay [2], “binds”; in assay [3], “binds”; in assay [4] it was “binds”.

Source of the values: paper PMC11304257.
